{"source": "the supplement of paper PMC11732987", "about": "“Enantioselective OTUD7B fragment discovery through chemoproteomics screening and high-throughput optimisation” (Communications Chemistry, 2025)", "note": "The list shows a part of the results. The data scatter; read single values as rough.", "data": [{"compound": "ClCC(=O)N[C@@H]1CCCc2ccccc12", "experiment": "log2 mean competition ratio of IA-DTB cysteine labelling (DMSO/compound) (log2 ratio); higher = stronger cysteine engagement by compound", "settings": "50 µM; treatment time: 4 h; cell line lysate: HEK293T", "description": "(§1)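 IA-DTB competitive cysteine chemoproteomics in HEK293T RIPA lysate. Lysates were treated with compound 29 or 30 at 50 or 200 µM for 4 h, then IA-DTB (500 µM, 1 h), trypsin-digested, NeutrAvidin-enriched and analysed by diaPASEF. Competition ratio = intensity DMSO / intensity compound (n=4 treated, n=64 DMSO); binding: mean log2 CR ≥ 1 and p ≤ 0.05 plus QC filters. Target is the cysteine site.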", "values": [{"target": "IP6K1 C349 (UniProt Q92551)", "log2 mean competition ratio": 0.0405}, {"target": "HSDL2 C71 (UniProt Q6YN16)", "log2 mean competition ratio": 0.0267}, {"target": "INPP1 C10 (UniProt P49441)", "log2 mean competition ratio": -0.154}, {"target": "IFNAR1 C426 (UniProt P17181)", "log2 mean competition ratio": -0.333}, {"target": "HTT C2013 (UniProt P42858)", "log2 mean competition ratio": 0.0879}, {"target": "HTRA2 C71 (UniProt O43464)", "log2 mean competition ratio": 0.0125}, {"target": "INTS11 C354 (UniProt Q5TA45)", "log2 mean competition ratio": 0.345}, {"target": "IARS2 C883 (UniProt Q9NSE4)", "log2 mean competition ratio": 0.0958}, {"target": "IGF1R C488 (UniProt P08069)", "log2 mean competition ratio": -0.191}, {"target": "HPF1 C152 (UniProt Q9NWY4)", "log2 mean competition ratio": 0.0707}, {"target": "HOXD13 C40", "log2 mean competition ratio": 0.359}, {"target": "IRAK1 C225 (UniProt P51617)", "log2 mean competition ratio": -0.0476}, {"target": "HSPBP1 C310", "log2 mean competition ratio": 0.432}, {"target": "IRF2BP1 C518 (UniProt Q8IU81)", "log2 mean competition ratio": 0.204}, {"target": "INTS7 C374 (UniProt Q9NVH2)", "log2 mean competition ratio": -0.159}, {"target": "INPPL1 C1187 (UniProt O15357)", "log2 mean competition ratio": -0.0531}, {"target": "HOXD11 C225", "log2 mean competition ratio": -0.16}, {"target": "HUWE1 C3239", "log2 mean competition ratio": -0.0553}, {"target": "IRF2BP1 C207 (UniProt Q8IU81)", "log2 mean competition ratio": 0.378}, {"target": "HSDL1 C328 (UniProt Q3SXM5)", "log2 mean competition ratio": 0.151}, {"target": "HUWE1 C471", "log2 mean competition ratio": 0.174}, {"target": "IFT140 C1360 (UniProt Q96RY7)", "log2 mean competition ratio": -0.525}, {"target": "ICE2 C492 (UniProt Q659A1)", "log2 mean competition ratio": -0.134}, {"target": "HUWE1 C1074", "log2 mean competition ratio": 0.0966}, {"target": "IQGAP2 C1183 (UniProt Q13576)", "log2 mean competition ratio": 0.00251}, {"target": "HTT C942 (UniProt P42858)", "log2 mean competition ratio": 0.0958}, {"target": "HUWE1 C1401", "log2 mean competition ratio": -0.182}, {"target": "INTS9 C471 (UniProt Q9NV88)", "log2 mean competition ratio": -0.253}, {"target": "IRF2BP2 C521 (UniProt Q7Z5L9)", "log2 mean competition ratio": 0.192}, {"target": "INTS2 C988 (UniProt Q9H0H0)", "log2 mean competition ratio": 0.0566}, {"target": "ILVBL C568 (UniProt A1L0T0)", "log2 mean competition ratio": 0.175}, {"target": "INTS7 C42 (UniProt Q9NVH2)", "log2 mean competition ratio": 0.0701}, {"target": "HPS6 C141 (UniProt Q86YV9)", "log2 mean competition ratio": -0.229}, {"target": "IPO5 C733", "log2 mean competition ratio": -0.0803}, {"target": "HSPH1 C845", "log2 mean competition ratio": 0.165}, {"target": "IL17RA C185 (UniProt Q96F46)", "log2 mean competition ratio": -0.1}, {"target": "HPRT1 C206 (UniProt P00492)", "log2 mean competition ratio": -0.0461}, {"target": "IARS1 C120", "log2 mean competition ratio": 0.146}]}, {"compound": "ClCC(=O)N[C@@H]1CCCc2ccccc12", "experiment": "log2 mean competition ratio of IA-DTB cysteine labelling (DMSO/compound) (log2 ratio); higher = stronger cysteine engagement by compound", "settings": "200 µM; treatment time: 4 h; cell line lysate: HEK293T", "description": "as §1", "values": [{"target": "IP6K1 C349 (UniProt Q92551)", "log2 mean competition ratio": 0.188}, {"target": "HSDL2 C71 (UniProt Q6YN16)", "log2 mean competition ratio": 0.181}, {"target": "INPP1 C10 (UniProt P49441)", "log2 mean competition ratio": -0.295}, {"target": "IFNAR1 C426 (UniProt P17181)", "log2 mean competition ratio": -0.00993}, {"target": "HTT C2013 (UniProt P42858)", "log2 mean competition ratio": 0.164}, {"target": "HTRA2 C71 (UniProt O43464)", "log2 mean competition ratio": 0.195}, {"target": "INTS11 C354 (UniProt Q5TA45)", "log2 mean competition ratio": 0.16}, {"target": "IARS2 C883 (UniProt Q9NSE4)", "log2 mean competition ratio": 0.223}, {"target": "IGF1R C488 (UniProt P08069)", "log2 mean competition ratio": -0.0555}, {"target": "HPF1 C152 (UniProt Q9NWY4)", "log2 mean competition ratio": -0.558}, {"target": "HOXD13 C40", "log2 mean competition ratio": 0.104}, {"target": "IRAK1 C225 (UniProt P51617)", "log2 mean competition ratio": 0.148}, {"target": "HSPBP1 C310", "log2 mean competition ratio": 0.39}, {"target": "IRF2BP1 C518 (UniProt Q8IU81)", "log2 mean competition ratio": -0.174}, {"target": "INTS7 C374 (UniProt Q9NVH2)", "log2 mean competition ratio": 0.0476}, {"target": "INPPL1 C1187 (UniProt O15357)", "log2 mean competition ratio": -0.665}, {"target": "HOXD11 C225", "log2 mean competition ratio": -0.106}, {"target": "HUWE1 C3239", "log2 mean competition ratio": 0.0227}, {"target": "IRF2BP1 C207 (UniProt Q8IU81)", "log2 mean competition ratio": 0.0917}, {"target": "HSDL1 C328 (UniProt Q3SXM5)", "log2 mean competition ratio": -0.0867}, {"target": "HUWE1 C471", "log2 mean competition ratio": 0.248}, {"target": "IFT140 C1360 (UniProt Q96RY7)", "log2 mean competition ratio": -0.131}, {"target": "ICE2 C492 (UniProt Q659A1)", "log2 mean competition ratio": 0.477}, {"target": "HUWE1 C1074", "log2 mean competition ratio": -0.393}, {"target": "IQGAP2 C1183 (UniProt Q13576)", "log2 mean competition ratio": -0.239}, {"target": "HTT C942 (UniProt P42858)", "log2 mean competition ratio": -0.0566}, {"target": "HUWE1 C1401", "log2 mean competition ratio": 0.0912}, {"target": "INTS9 C471 (UniProt Q9NV88)", "log2 mean competition ratio": 0.112}, {"target": "IRF2BP2 C521 (UniProt Q7Z5L9)", "log2 mean competition ratio": -0.189}, {"target": "INTS2 C988 (UniProt Q9H0H0)", "log2 mean competition ratio": 0.571}, {"target": "ILVBL C568 (UniProt A1L0T0)", "log2 mean competition ratio": -0.0197}, {"target": "INTS7 C42 (UniProt Q9NVH2)", "log2 mean competition ratio": 0.049}, {"target": "HPS6 C141 (UniProt Q86YV9)", "log2 mean competition ratio": -0.0572}, {"target": "IPO5 C733", "log2 mean competition ratio": 0.0622}, {"target": "HSPH1 C845", "log2 mean competition ratio": -0.252}, {"target": "IL17RA C185 (UniProt Q96F46)", "log2 mean competition ratio": -0.0633}, {"target": "HPRT1 C206 (UniProt P00492)", "log2 mean competition ratio": -0.112}, {"target": "IARS1 C120", "log2 mean competition ratio": -0.223}]}]}
